Experimental data published in the supplement of paper PMC3682954.
“And” between values parts separate entries of the source, which are not always exact repeats. Equal entries are not always repeated. Structures can show the parent of a compound that is named as a salt. ± gives the standard deviation of the averaged measurements. The list shows a part of the results. Single values are uncertain, as repeats are few or missing.

Test system: RAW 264.7
Test: HMGB1-induced TNF-alpha production relative to HMGB1-stimulated control; higher = more TNF-alpha secretion (less inhibition)
Conditions: stimulus: HMGB1 5 ug/ml, 18 h
[1] = compound concentration: 1 ug/ml

CN(C)CC[C@@H](c1ccc(Cl)cc1)c1ccccn1
HMGB1-induced TNF-alpha production (compound concentration: 3 uM): 88.8% and 100%

CN(CCOc1ccc(CC2SC(=O)NC2=O)cc1)c1ccccn1 (stereo not given) [Rosiglitazone]
HMGB1-induced TNF-alpha production (compound concentration: 3 uM): 92.3%

CCC(=O)OCC(=O)[C@@]1(OC(=O)CC)[C@H](C)C[C@H]2[C@H]3[C@H]([C@@H](O)C[C@@]21C)[C@@]1(C)C=CC(=O)C=C1C[C@H]3Cl [Alclometasone dipropionate]
HMGB1-induced TNF-alpha production (compound concentration: 3 uM): 43%

CO[C@@H]1[C@H](O)[C@@H](CO)O[C@H]1n1ccc(N)nc1=O [2'-O-Methylcytidine]
HMGB1-induced TNF-alpha production [1]: 94.7%

O=C(CC(=O)c1ccccc1)c1ccccc1
HMGB1-induced TNF-alpha production (compound concentration: 3 uM): 101%

C[C@H]1C[C@@H]2[C@H]([C@@H](O)C[C@@]3(C)[C@H]2CC[C@]3(O)C(=O)COC(=O)CCC(=O)O)[C@@]2(C)C=CC(=O)C=C12
HMGB1-induced TNF-alpha production (compound concentration: 3 uM): 40.5%

Nc1cc(-c2ccncc2)c[nH]c1=O [Amrinone]
HMGB1-induced TNF-alpha production (compound concentration: 3 uM): 72.5%

c1ccc2c(c1)CCCc1cc(NCCN3CCOCC3)nnc1-2
HMGB1-induced TNF-alpha production (compound concentration: 3 uM): 88.9%

CC(N)C12CC3CC(CC(C3)C1)C2 (stereo not given)
HMGB1-induced TNF-alpha production (compound concentration: 3 uM): 89.5%

CC(N)C12CC3CC(CC(C3)C1)C2 (stereo not given) [Rimantadine]
HMGB1-induced TNF-alpha production (compound concentration: 3 uM): 103 ± 20%

COc1cccc(-c2cc(=O)c3c(O)cccc3o2)c1 [5-Hydroxy-3'-methoxyflavone]
HMGB1-induced TNF-alpha production [1]: 89.1%

COC(=O)C(N)CS (stereo not given)
HMGB1-induced TNF-alpha production (compound concentration: 3 uM): 75.7%

COc1ccc(-c2oc3ccccc3c(=O)c2O)cc1 [4'-Methoxyflavonol]
HMGB1-induced TNF-alpha production [1]: 77.8%

CN(C)[C@@H]1C(O)=C(C(N)=O)C(=O)[C@@]2(O)C(O)=C3C(=O)c4c(O)ccc(Cl)c4[C@@H](O)[C@H]3C[C@@H]12 [Demeclocycline hydrochloride]
HMGB1-induced TNF-alpha production (compound concentration: 3 uM): 89.2 ± 10%

CN(C)[C@@H]1C(O)=C(C(N)=O)C(=O)[C@@]2(O)C(O)=C3C(=O)c4c(O)ccc(Cl)c4[C@@H](O)[C@H]3C[C@@H]12
HMGB1-induced TNF-alpha production (compound concentration: 3 uM): 91.6%

O=C(O)/C(=C\c1c(C(=O)O)[nH]c2cc(Cl)cc(Cl)c12)c1ccccc1
HMGB1-induced TNF-alpha production (compound concentration: 3 uM): 114%

O=C1c2ccccc2S(=O)(=O)N1CCCCN1CCN(c2ncccn2)CC1 [Ipsapirone]
HMGB1-induced TNF-alpha production (compound concentration: 3 uM): 114%

Cn1c([N+](=O)[O-])cnc1COC(N)=O [Ronidazole]
HMGB1-induced TNF-alpha production (compound concentration: 3 uM): 119%

Cn1c([N+](=O)[O-])cnc1COC(N)=O
HMGB1-induced TNF-alpha production (compound concentration: 3 uM): 88.4%

COC(=O)c1ccc(O)c2nc3c(C=O)c(O)cc(O)c3nc12 [Lomofungin]
HMGB1-induced TNF-alpha production (compound concentration: 3 uM): 93.9%

NC(N)=O
HMGB1-induced TNF-alpha production (compound concentration: 3 uM): 80.9%

C[C@@H]1C[C@@]2(O[C@H]2C)C(=O)O[C@@H]2CCN(C)C/C=C(/COC(=O)[C@]1(C)O)C2=O [Otosenine]
HMGB1-induced TNF-alpha production [1]: 68.8%

COc1cccc2oc(-c3ccc(O)cc3)cc(=O)c12
HMGB1-induced TNF-alpha production [1]: 53.7%

COc1ccc(C(=O)NCc2ccc(OCCN(C)C)cc2)cc1OC [Itopride]
HMGB1-induced TNF-alpha production (compound concentration: 3 uM): 91.2 ± 8.7%

COc1ccc(C(=O)NCc2ccc(OCCN(C)C)cc2)cc1OC
HMGB1-induced TNF-alpha production (compound concentration: 3 uM): 122%

N[C@@H](C(=O)N[C@@H]1C(=O)N2C(C(=O)O)=C(Cl)CS[C@H]12)c1ccccc1
HMGB1-induced TNF-alpha production (compound concentration: 3 uM): 97.8 ± 12%

N[C@@H](C(=O)N[C@@H]1C(=O)N2C(C(=O)O)=C(Cl)CS[C@H]12)c1ccccc1 [Cefaclor]
HMGB1-induced TNF-alpha production [1]: 55.8%
HMGB1-induced TNF-alpha production (compound concentration: 3 uM): 79.9 ± 6.2%

COc1ccc(-c2cc(C(F)F)nn2-c2ccc(S(N)(=O)=O)cc2)cc1F
HMGB1-induced TNF-alpha production (compound concentration: 3 uM): 89.6%

CC(C)NC[C@H](O)c1ccc(O)c(O)c1 [R(-)-Isoproterenol (+)-bitartrate]
HMGB1-induced TNF-alpha production (compound concentration: 3 uM): 72.5%

CC(Oc1ccccc1)C(=O)N[C@@H]1C(=O)N2[C@@H]1SC(C)(C)[C@@H]2C(=O)O (stereo not given in full)
HMGB1-induced TNF-alpha production (compound concentration: 3 uM): 91.1%

CC(Oc1ccccc1)C(=O)N[C@@H]1C(=O)N2[C@@H]1SC(C)(C)[C@@H]2C(=O)O (stereo not given in full) [Phenethicillin potassium salt]
HMGB1-induced TNF-alpha production (compound concentration: 3 uM): 113%

OC[C@H]1O[C@@H](O[C@@H]2[C@@H](CO)OC(O)(CO)[C@H]2O)[C@H](O)[C@@H](O)[C@H]1O (mixture of isomers) [Lactulose]
HMGB1-induced TNF-alpha production [1]: 68.7%

OC[C@H]1O[C@@H](O[C@@H]2[C@@H](CO)OC(O)(CO)[C@H]2O)[C@H](O)[C@@H](O)[C@H]1O (mixture of isomers)
HMGB1-induced TNF-alpha production (compound concentration: 3 uM): 104%

NCCS(=O)O [Hypotaurine]
HMGB1-induced TNF-alpha production (compound concentration: 3 uM): 85.6%

CO/N=C(\C(=O)N[C@@H]1C(=O)N2C(C(=O)O)=C(C[N+]3(C)CCCC3)CS[C@H]12)c1csc(N)n1 [Cefepime hydrochloride]
HMGB1-induced TNF-alpha production (compound concentration: 3 uM): 114%

CCOC(=O)[C@H](CCc1ccccc1)N[C@@H](C)C(=O)N1CCC[C@H]1C(=O)O
HMGB1-induced TNF-alpha production (compound concentration: 3 uM): 82.5%

CCOC(=O)[C@H](CCc1ccccc1)N[C@@H](C)C(=O)N1CCC[C@H]1C(=O)O [Enalapril maleate]
HMGB1-induced TNF-alpha production (compound concentration: 3 uM): 84.7%

CCOC(=O)[C@H](CCc1ccccc1)N[C@@H](C)C(=O)N1CCC[C@H]1C(=O)O [Enalapril]
HMGB1-induced TNF-alpha production (compound concentration: 3 uM): 101%

O=C1CC2(CCCC2)CC(=O)N1CCNCC1COc2ccccc2O1 (stereo not given)
HMGB1-induced TNF-alpha production (compound concentration: 3 uM): 97.4%

NC[C@@H]1O[C@H](c2ccccc2)Cc2c1ccc(O)c2O
HMGB1-induced TNF-alpha production (compound concentration: 3 uM): 101%

Cn1nnnc1SCC1=C(C(=O)O)N2C(=O)[C@@H](NC(=O)[C@H](OC=O)c3ccccc3)[C@H]2SC1
HMGB1-induced TNF-alpha production (compound concentration: 3 uM): 89.1%

C[C@]12CC[C@@H]3c4ccc(O)cc4CC[C@H]3[C@@H]1C[C@H](O)[C@@H]2O
HMGB1-induced TNF-alpha production (compound concentration: 3 uM): 87.3%

NOCC(=O)O [O-(Carboxymethyl)hydroxylamine hemihydrochloride]
HMGB1-induced TNF-alpha production (compound concentration: 3 uM): 78.5%

CC1=C(CC(=O)O)c2cc(F)ccc2/C1=C\c1ccc([S+](C)[O-])cc1 (stereo not given)
HMGB1-induced TNF-alpha production (compound concentration: 3 uM): 103%

CC1=C(CC(=O)O)c2cc(F)ccc2/C1=C\c1ccc([S+](C)[O-])cc1 (stereo not given) [Sulindac]
HMGB1-induced TNF-alpha production (compound concentration: 3 uM): 98.7 ± 15%

CC(Oc1c(Cl)cccc1Cl)C1=NCCN1 (stereo not given)
HMGB1-induced TNF-alpha production (compound concentration: 3 uM): 102%

CC(Oc1c(Cl)cccc1Cl)C1=NCCN1 (stereo not given) [Lofexidine]
HMGB1-induced TNF-alpha production (compound concentration: 3 uM): 75.7 ± 14%

CN(C)CCCO[C@@H]1[C@H]2OC(C)(C)O[C@H]2O[C@@H]1[C@H](O)CO [Amiprilose hydrochloride]
HMGB1-induced TNF-alpha production (compound concentration: 3 uM): 99.1 ± 21%

CN(C)CCCO[C@@H]1[C@H]2OC(C)(C)O[C@H]2O[C@@H]1[C@H](O)CO
HMGB1-induced TNF-alpha production (compound concentration: 3 uM): 103%

C[C@]12CC[C@@H]3c4ccc(O)cc4CC[C@H]3[C@@H]1C[C@@H](O)[C@@H]2O [Estriol]
HMGB1-induced TNF-alpha production (compound concentration: 3 uM): 111 ± 22%

C[C@]12CC[C@@H]3c4ccc(O)cc4CC[C@H]3[C@@H]1C[C@@H](O)[C@@H]2O
HMGB1-induced TNF-alpha production (compound concentration: 3 uM): 83.9%

OC1CCN2Cc3ccccc3N=C12 (stereo not given) [Peganine]
HMGB1-induced TNF-alpha production [1]: 74.2%

CCCCC(=O)O[C@]1(C(=O)CO)CC[C@H]2[C@@H]3CCC4=CC(=O)CC[C@]4(C)[C@H]3[C@@H](O)C[C@@]21C [Hydrocortisone 17-valerate]
HMGB1-induced TNF-alpha production [1]: 37.4%

CCCCC(=O)O[C@]1(C(=O)CO)CC[C@H]2[C@@H]3CCC4=CC(=O)CC[C@]4(C)[C@H]3[C@@H](O)C[C@@]21C
HMGB1-induced TNF-alpha production (compound concentration: 3 uM): 47.7%
